From PMC11898301
Results are given in words; binding and its absence hold for the method and conditions named. In cells and extracts the contact can be indirect. Binding can be weak; no strength is given. Sequences can lack the tags named with a protein.

Chains of the proteins cited; added tags and fusions are not shown. Lines headed by an entry give the natural chain unless they say otherwise; changes in a name come on top.
UniProt Q969H0: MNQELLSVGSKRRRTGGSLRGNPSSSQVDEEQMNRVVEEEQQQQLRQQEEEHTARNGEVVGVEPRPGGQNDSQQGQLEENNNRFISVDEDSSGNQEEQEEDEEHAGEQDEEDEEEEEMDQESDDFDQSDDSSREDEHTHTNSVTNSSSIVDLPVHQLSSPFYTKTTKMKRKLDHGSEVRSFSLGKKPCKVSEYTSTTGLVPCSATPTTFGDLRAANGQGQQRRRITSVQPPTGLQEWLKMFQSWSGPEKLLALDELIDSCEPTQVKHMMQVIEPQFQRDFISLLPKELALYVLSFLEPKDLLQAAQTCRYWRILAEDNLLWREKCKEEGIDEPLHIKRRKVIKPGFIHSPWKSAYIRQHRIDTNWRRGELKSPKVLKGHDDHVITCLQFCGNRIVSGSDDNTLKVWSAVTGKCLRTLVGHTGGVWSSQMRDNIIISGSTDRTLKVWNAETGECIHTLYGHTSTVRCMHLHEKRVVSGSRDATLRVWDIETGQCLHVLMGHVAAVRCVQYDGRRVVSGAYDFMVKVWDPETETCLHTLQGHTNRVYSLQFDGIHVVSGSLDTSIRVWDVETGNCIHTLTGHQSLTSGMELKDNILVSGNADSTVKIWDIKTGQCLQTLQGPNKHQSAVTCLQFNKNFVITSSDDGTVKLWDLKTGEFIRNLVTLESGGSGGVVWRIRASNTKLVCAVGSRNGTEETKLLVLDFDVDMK

Target: T1, HA-PRR11-WT (proline-rich 11) (human) (UniProt Q96HE9)
T1 sequence: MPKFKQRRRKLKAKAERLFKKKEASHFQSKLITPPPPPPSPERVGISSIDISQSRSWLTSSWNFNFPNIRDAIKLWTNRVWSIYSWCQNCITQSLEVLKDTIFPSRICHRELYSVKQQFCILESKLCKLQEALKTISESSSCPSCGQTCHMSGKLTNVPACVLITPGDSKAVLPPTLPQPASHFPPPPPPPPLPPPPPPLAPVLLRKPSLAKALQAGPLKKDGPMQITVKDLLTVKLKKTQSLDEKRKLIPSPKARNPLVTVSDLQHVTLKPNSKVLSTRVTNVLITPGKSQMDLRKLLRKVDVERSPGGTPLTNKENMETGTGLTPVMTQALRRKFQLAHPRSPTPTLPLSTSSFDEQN
Test: co-IP; 293T cells transfected with HA-PRR11 (WT, fragments or mutants) and Flag-GSK3β or Flag-FBXW7 (WT or mutants); MG132 10 μM for 6 h before collection; IP with HA or Flag antibody, Protein A/G magnetic beads, Western blot; in some panels λ-PPase added to extracts, CHIR-99021, siGSK3β or GSK3β overexpression

binding: binds
Substance: Flag-FBXW7 (ΔF-box) (from UniProt Q969H0)
